US20230242645A1
These are yes or no findings as the source states them, for the method shown. Some binding calls cover weakened binding; strength is not graded here.

Experiments:
[1] = target: cynomolgus monkey PD-L1 on 293F cells (WBP315.293F.cPro1.2A) (cynomolgus monkey) (UniProt G7PSE7); experiment: FACS on cynomolgus PD-L1 expressing 293F cells, FITC anti-human IgG
[2] = target: cynomolgus monkey PD-L1 on 293F cells (WBP315.293F.cPro1.2A) (cynomolgus monkey) (UniProt G7PSE7); experiment: flow cytometry on cynomolgus PD-L1 expressing 293F cells

B1: W3156-AP3R2-1A3-z12-hIgG1 (Fc fusion, not shown: small tags and cut ends)
chain: EVQLVESGGGLVQPGGSLRLSCAASGHFSNLAVNWFRQAPGKERELVAGILWSGGSTFYADSVKGRFTISRGNAENMLYLQMNSLRAEDTAVYYCNTGTNWGQGTLVTVSS
[1]
  binding: binds
[2]
  binding: binds
